Test results published in PMC5633398.
Results are given in words; binding and its absence hold for the method and conditions named. In cells and extracts the contact can be indirect. Binding can be weak; no strength is given. Where a sequence is shown, tags or fusion partners need not be part of it.

Target: T1, Bcy1-NV (Bcy1 tagged C-terminally with the N-terminal segment of yEmVenus) (C. albicans) (UniProt Q9HEW1)
T1 sequence: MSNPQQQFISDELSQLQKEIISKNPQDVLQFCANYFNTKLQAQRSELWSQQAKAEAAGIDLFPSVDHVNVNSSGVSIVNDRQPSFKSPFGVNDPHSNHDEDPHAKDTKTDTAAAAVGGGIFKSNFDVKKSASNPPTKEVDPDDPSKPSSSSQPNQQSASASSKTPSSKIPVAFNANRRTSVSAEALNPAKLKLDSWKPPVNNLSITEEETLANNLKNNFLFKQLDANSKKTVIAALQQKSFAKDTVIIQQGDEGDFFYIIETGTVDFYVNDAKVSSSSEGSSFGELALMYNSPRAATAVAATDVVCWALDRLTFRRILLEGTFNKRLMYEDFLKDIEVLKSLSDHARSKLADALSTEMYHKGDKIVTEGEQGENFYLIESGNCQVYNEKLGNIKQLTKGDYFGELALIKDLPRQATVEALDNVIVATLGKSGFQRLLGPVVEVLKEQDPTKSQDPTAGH
Assay: split reporter; BiFC with split yEmVenus in C. albicans SN152, MET3 promoter; confocal microscopy of living cells in the midexponential phase, SC -methionine -cysteine, 2% glucose (Bcy1-Tpk strains at 37°); fluorescence intensity per pixel quantified

Tpk2-CV (Tpk2 tagged C-terminally with the C-terminal segment of yEmVenus) (C. albicans) (enzyme)
binding: binds
